The campaign covered roughly 340,000 compounds. About 170 (0.05%) were called active. This list was built around the results that the source calls inconclusive (neither active nor inactive); the mix of calls is not that of the screen. The call rests on the fitted dose curve; in most records, active means well fitted inhibition curve with a large enough effect in the signal ratio, with a control signal flat (not every such curve was filed as active); inconclusive means small, poorly fitted or top-dose-only effect, or effect the other way, or a change in a side signal; inactive means flat fitted curve, though single readings scatter; the % refers to the signal ratio. A potency beside an inconclusive call is a rough fit, not a confirmed value.
Experiment: qHTS Assay to Find Inhibitors of Chronic Active B-Cell Receptor Signaling;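 on activity change, negative = inhibition: plate controls were basal doxycycline-induced cells for no effect and cells given 10 µM MG132 for full effect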
Details: ABC-DLBCL IkBa-CBG/CBR reporter, luminescence ratio (green luciferase fused to IkBa over red control in TMD8 lymphoma cells), 4 h; activity change, negative = inhibition: at 46.1 µM (top of the series)
Procedure, shortened: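 Concentration-response series (up to 46 uM) were applied to TMD8 dual-reporter cells for 4 h at 37C with doxycycline. Green/red ratio, after filter-overlap correction, defined %Activity; red signal alone was normalised to basal cells and zero luminescence.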
Potency means the concentration at half of the fitted maximal effect.

SMILES | activity change, negative = inhibition | Potency
Cc1c(N(CC(=O)O)S(=O)(=O)c2ccccc2)c(=O)n(-c2ccccc2)n1C | inactive: 5.61% | 
O=C1c2cccnc2C(Nc2ccc(Cl)cc2)N1Cc1cccs1 (stereo not given) | inconclusive: -2.2% | 
O=C(NCCC(=O)N1CCN(c2ncccn2)CC1)c1ccccc1 | inconclusive: -4.34% | 
COc1cc(/C=N/Nc2nc(N3CCCC3)nc(N3CCCC3)n2)ccc1O | inconclusive: 2.99% | 
COCc1ccc(CN2CCC(C(=O)Nc3cccc(-c4cccc(Cl)c4)c3)CC2)o1 |  | inconclusive: 10 µM [falling, partial curve, poor fit]
COc1ccc(CCNc2ncnc3cc(OC)c(OC)cc23)cc1OC | inconclusive: -11.9% | 
COc1ccc(C(=O)NC(=S)Nc2cccc(S(=O)(=O)N3CCOCC3)c2)cc1 | inactive: -27.3% | 
N=c1oc2c3c4c(cc2cc1C(=O)Nc1ccccc1)CCCN4CCC3 | inactive: -0.239% | 
CCCCn1c(O)c(N=Nc2ccccc2O)c2ccccc21 | inactive: -15.7% | 
CC(C)CN1C(=O)NC2(CCCc3ccccc32)C1=O (stereo not given) | inactive: -4.79% | 
COc1ccccc1C(=O)C1CCCN(Cc2cn[nH]c2C2CCCCC2)C1 (stereo not given) | inconclusive: -20.6% | 
O=C1CN(S(=O)(=O)c2ccc(Cl)cc2)CC(=O)N1CCc1ccccc1 |  | inconclusive: 16.4 µM [rising, partial curve]
COc1cccc(NC(=O)CN(C)C(=O)CC(C)c2ccccc2)c1 (stereo not given) | inconclusive: -2.07% | 
O=C(c1ccco1)N1CCN(C(=O)c2cnn3c(C(F)(F)F)cc(-c4cccs4)nc23)CC1 | inconclusive: -0.579% | 
COc1ccc(NS(=O)(=O)c2csc(C(N)=O)c2)cc1 | inactive: 3.71% | 
COc1ccc(N/C(=N\c2nc(C)cc(C)n2)NC(=O)C(C)C)cc1OC | inconclusive: -1.2% | 
Cc1noc(C)c1S(=O)(=O)N(C)C[C@H]1Oc2ccc(NC(=O)NC(C)C)cc2C(=O)N([C@H](C)CO)C[C@@H]1C | inactive: -2.91% | 
O=C(COC(=O)c1cc(Cl)ccc1Cl)NC1CCCC1 | inconclusive: 0.227% | 
CC(C)CC(=O)C1CCCN(C(=O)c2ccc3oc(Cc4ccccc4)nc3c2)C1 (stereo not given) | inactive: 1.95% | 
CCOC(=O)c1cnc(-n2nc(C)cc2C)nc1Oc1ccccc1F | inconclusive: -4.34% | 
Cc1ccc(NC(=O)COc2ccc3oc4c(c3c2)CCCC4)nc1 | inconclusive: 4.86% | 
CCOC(=O)CSC1=C(C#N)C(c2ccc(C)s2)CC(=O)N1 (stereo not given) |  | inconclusive: 17.8 µM [falling, partial curve]
CCOC(=O)C1CCCN(C(=O)c2cc3c(=O)n(C)c4ccccc4c3n2C)C1 (stereo not given) |  | inconclusive: 0.0058 µM [falling, full curve, poor fit]
CNC(=O)/C=C/c1cc(C(=O)c2ccc(Cl)cc2Cl)cn1C | inactive: -4.4% | 
O=C1CC(N2CCOCC2)C(=O)N1CCc1ccccc1 (stereo not given) | inconclusive: 2.33% | 

SMILES | activity change, negative = inhibition | Potency
COc1cc(S(=O)(=O)NCC2OCCc3ccccc32)ccc1-n1cnnn1 (stereo not given) |  | inconclusive: 16.4 µM [rising, partial curve, poor fit]
O=C(Nc1ccc(N2CCOCC2)nc1N1CCOCC1)c1cccc(C(F)(F)F)c1 |  | inconclusive: 28.2 µM [falling, single point]
Cc1ccc(OCc2ccc(C(=O)N3CCCC3)o2)cc1C | inconclusive: -0.453% | 
CCN1CCN(c2ccc(S(=O)(=O)N3CCCCC3)cc2NC(=O)Cc2ccc(Cl)c(Cl)c2)CC1 | inconclusive: -14.9% | 
NS(=O)(=O)c1ccc(CCNC(=O)C(=O)C2C(=O)Nc3ccccc32)cc1 (stereo not given) | inconclusive: -22.7% | 
CCc1ccc(/C=C2\SC(=S)N(CCCC(=O)Nc3ccccc3C(=O)O)C2=O)cc1 |  | inconclusive: 8.91 µM [falling, partial curve, poor fit]
COc1ccc(/C=C/C(=O)NC(=S)Nc2ccccn2)cc1 | inactive: 2.49% | 
COCCn1ccc2c(OCC(=O)Nc3ccccc3OC)cccc2c1=O |  | inconclusive: 2.59 µM [falling, partial curve]
COc1cccc(-c2nnn(CC(C)=O)n2)c1 | inconclusive: 19.6% | 
COc1ccccc1-c1nnc(C2CCN(S(=O)(=O)c3ccccc3[N+](=O)[O-])CC2)o1 |  | inconclusive: 17.8 µM [falling, partial curve]
Cc1nn(Cc2ccc(Cl)cc2)c(C)c1NC(=O)c1ccc([N+](=O)[O-])cc1 | inconclusive: -22.5% | 
O=C1CS/C(=C/C(=O)c2cccc(Cl)c2)N1 | inconclusive: -26% | 
O=C(Cc1csc(-c2ccc(F)cc2)n1)Nc1cccc(S(=O)(=O)NC2=NCCC2)c1 |  | inconclusive: 20.6 µM [falling, partial curve]
CC(=O)Oc1ccc(-c2cccc(C(=O)Oc3ccccc3)c2)cc1 | inconclusive: 21.1% | 
CCOC(=O)c1c(NC(=O)CN2C(=O)NC3(CCCC3)C2=O)sc(C)c1CC | inconclusive: -4.47% | 
N#Cc1ccc(-c2cccs2)nc1SCc1cccnc1 | inconclusive: 5.58% | 
CCS(=O)(=O)n1nc(-c2ccc(OC)cc2)nc1N | inconclusive: 4.02% | 
O=C(O)c1ccccc1C(=O)c1ccc(N2CCOCC2)c([N+](=O)[O-])c1 | inactive: 3.6% | 
CC(=O)N/C(=C/c1ccccc1)c1ccccc1 | inconclusive: -0.967% | 
Cc1oc(-c2ccc(Cl)cc2)nc1CN1CCC(C(=O)NCCCN2CCCC(C)C2)CC1 (stereo not given) |  | inconclusive: 35.5 µM [falling, single point]
CCOc1cc(/C=N/NC(=O)c2nn(C)cc2Br)ccc1OCc1ccccc1 | inconclusive: -8.23% | 
COc1ccc(C(C(=O)NCc2ccccc2)N(C(=O)c2snc(C(N)=O)c2N)C2CCCC2)cc1O (stereo not given) | inconclusive: -21.3% | 
O=C(O)COc1ccc(/C=N/NC(=O)C2CCCN2S(=O)(=O)c2ccc(Cl)cc2)cc1 (stereo not given) |  | inconclusive: 5.8 µM [falling, partial curve]
CCn1cc(C(=O)NCCc2ccccc2)c(=O)c2cc(S(=O)(=O)N(C)C)ccc21 | inconclusive: -1.19% | 
CCOc1ccc(NC(=O)CC2C(=O)N(c3ccc(OC)cc3)C(=O)N2CCc2ccc(OC)c(OC)c2)cc1 (stereo not given) | inconclusive: -7.05% | 

Compounds shown so far containing a cyano group:
SMILES | activity change, negative = inhibition | Potency
CCOC(=O)CSC1=C(C#N)C(c2ccc(C)s2)CC(=O)N1 (stereo not given) |  | inconclusive: 17.8 µM [falling, partial curve]
N#Cc1ccc(-c2cccs2)nc1SCc1cccnc1 | inconclusive: 5.58% | 
